We go through 6 molecules from PMC12029333.

No constants are given. Whether binding was seen depends on the method and setting. In cells and extracts the contact can be indirect. A yes stands for co-enrichment or nearness to the bait. Other partners may have been found. Where a sequence is shown, tags or fusion partners need not be part of it.

The test deals with T1, GST-PrkC (Serine/threonine-protein kinase PrkC) (Bacillus subtilis str. 168) (UniProt O34507).
T1 sequence: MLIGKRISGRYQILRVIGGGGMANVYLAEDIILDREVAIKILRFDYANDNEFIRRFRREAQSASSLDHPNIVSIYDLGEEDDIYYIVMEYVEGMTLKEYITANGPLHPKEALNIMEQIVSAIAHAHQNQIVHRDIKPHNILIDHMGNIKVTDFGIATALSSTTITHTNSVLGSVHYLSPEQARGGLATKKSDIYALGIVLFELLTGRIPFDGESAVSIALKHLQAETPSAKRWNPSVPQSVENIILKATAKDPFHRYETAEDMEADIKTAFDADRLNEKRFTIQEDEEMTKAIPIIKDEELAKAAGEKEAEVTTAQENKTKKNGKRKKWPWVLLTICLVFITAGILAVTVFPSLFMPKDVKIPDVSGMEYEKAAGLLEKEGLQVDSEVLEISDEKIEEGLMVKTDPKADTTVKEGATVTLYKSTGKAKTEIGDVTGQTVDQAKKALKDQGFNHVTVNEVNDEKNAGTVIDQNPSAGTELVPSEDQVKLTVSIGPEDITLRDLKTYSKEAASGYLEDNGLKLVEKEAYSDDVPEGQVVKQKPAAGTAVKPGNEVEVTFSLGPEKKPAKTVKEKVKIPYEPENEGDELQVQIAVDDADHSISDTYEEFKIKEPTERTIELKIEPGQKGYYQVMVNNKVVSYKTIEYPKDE
The test is described as follows: affinity purification with mass spectrometry; GST-PrkC on glutathione resin incubated with B. subtilis spore lysate at 4 °C; resin washed; bound proteins eluted with 20 mM reduced glutathione; eluate digested with trypsin and analysed by LC-MS/MS; hits filtered at 1% FDR, >=2 unique peptides; only the target purified.

B1: Uncharacterized transporter YxxF (protein, UniProt Q07835 1-311)
chain: MQQDPSISSKQKSTAVIKMVISMVIFGSIGFFSEHTNLPSFELVFVRCLCATLFLGFCWLASGQYKTEKWSKRDVLQTLACGFFLVFNWVFLFKSFEETSVTIAISVYHLAPVLVLLLGSFFYREKLNVISVSSIIICFLGTALISGINGSTSLTQLMGSGIIWAVLAALFYAFTTLLGKGIHNLSPYTTTFLQTGLGVIILIPFIHFGAFADLSQGNWIMVVSTGIIHTGIVYLLFFDSLRFLSTKFISIIVFLDPAVAIVLDTVFTGFRPDLYQTLGIVMIFAGMALTLVRRQGKANVTAEGTDIEQIQ
As to B1, the binding entry is reported as “binds”.

B2: Sensor histidine kinase YxjM (protein, UniProt P55183 1-406)
chain: MNGQTPARHYYKKLVPSLILILNCIQFLSHPTKADPILLAFVFAVYLAFIWIIPYVASTAVSLSIFIGLWLLTDFFWAVSGQEQGAAYFLIVFLMIYAAFRLPSRLSLIFTACLIGGNILLLSSQGGSLNTIISNISIMLGLYVLFSSMRFRREARREAERNHAELAKMHVQLEHAHKELQKAHAELQEASVLSLRYAVLEERTRIARDIHDSIGHELTSVIVQLQSLPYILKSSKEDSEKVIQNVLSVARECLQEVRSVVHQMGRSESMVGLTALRGLIHQVEERSGLHVSLDTAGLSEESWPPNVSETIYRILQEALTNIIRHADASHAAAVISNDKSHLYVTITDDGQFTGSLTYGFGLTGMKERAEKAGGSLTFSAVQPSGLKIELSLPLMTTNKEQKDEQR
Regarding B2, the binding result is listed as “binds”.

B3: Spore coat protein I (protein, UniProt O34656 1-357)
chain: MCPLMAENHEVIEEGNSSELPLSAEDAKKLTELAENVLQGWDVQAEKIDVIQGNQMALVWKVHTDSGAVCLKRIHRPEKKALFSIFAQDYLAKKGMNVPGILPNKKGSLYSKHGSFLFVVYDWIEGRPFELTVKQDLEFIMKGLADFHTASVGYQPPNGVPIFTKLGRWPNHYTKRCKQMETWKLMAEAEKEDPFSQLYLQEIDGFIEDGLRIKDRLLQSTYVPWTEQLKKSPNLCHQDYGTGNTLLGENEQIWVIDLDTVSFDLPIRDLRKMIIPLLDTTGVWDDETFNVMLNAYESRAPLTEEQKQVMFIDMLFPYELYDVIREKYVRKSALPKEELESAFEYERIKANALRQLI
Consider B3, for which the binding entry is “binds”.

B4: Exodeoxyribonuclease YycJ (protein, UniProt C0SP91 1-264)
chain: MSLQFSVLASGSTGNAFYLETEDHAFLVDAGLSGKAMDGLMAQIGRKLDDVDGIFVTHEHSDHIKGLGVVARKYKLPIYANEKTWKAMENQIGKIDTDQKFVFPMETVKSFGGLDVESFGVSHDAAEPMFYVFHYSGRKLALMTDTGYVSDRMKGIIRSANVFVFESNHDVGMLQMGRYPWSIKRRILSDVGHVSNEDAALAMTDVIGDETSRIYLAHLSQDNNMKELARMSVQQTLASKGFVTGETFDLYDTDPKKATPLCAV
Consider B4, for which the binding entry is “binds”.

B5: Toxin YxiD (protein, UniProt P42296 1-569)
chain: MKTLDVHALHEGIQHTIEKLDKQKQQLEKLEKSVEHLAGMKDALKGKGGDAIRTFYEECHKPFLLFFGIFIDEYKKVLKQTQHAISSVESNSHGMIAEAFLSHDARHGVKHAREVTEQLTDAVNRQTSAIDHIVSLPTVNDSFFRMETEQAERLISDTLNKLFQFDGQQTQALEAAKSDFQTMKKYIDQLETMYTGPKIEITGYKSGSILKSQEEENINQIFGAINPQMKQADDSPMEMMLKKLAENEKSKVDSVVKTGDSKKVSKNIIVINGKVYNTSEHREHIKTDFSNAEVKQVVYNDTLYNVYISGNDMKLEPVVSLSDIKVDENGYVKILETAVELTGVYDLFKAATGRDPVSGEKVTGKDRVVASINSVPFAKIAKLEKLIDINKLINNGKKAKKASEVKNVAKDKGKIANDVSGSANKINSDLIKKYARDIEQRTGRELPKNQIDKLKEALRNKEYKKMSPIETAKHRTKFDKVKNKVIKEWEENTGQKWPVYKENVVSEKTGKIIRKKGDKYDAHHIIENTFGGEHEWWNMHPAKFPNEHQAGIHGTGSPANELFKGGKKK
With B5, the binding result is listed as “binds”.

B6: Uncharacterized protein YxiG (protein, UniProt P42299 1-138)
chain: MTMYQTINEWVDYIDKGCSVLHLDFNVFKKELSLDIKVFEDEGEYTHKISFQNVASAYYSADVGDMRLEKIDPEEYNWQVFEMSYHPEGIGNLSNSIIPEYQSNANFLIDMNRMLIAIEAETVRFDDQSFYAYQLNTK
Regarding B6, the binding result was “binds”.
